From patent US8486950B2, “Janus kinase inhibitor compounds and methods” (F. Hoffmann-La Roche AG, priority 2009, dated 2013)
Some of these results come from one statement about several compounds together.

Target: T1, TYK2 kinase domain (Homo sapiens, UniProt P29597)
T1 construct: made in house; host or cells: SF9 insect cells (recombinant baculovirus)
T1 sequence (P29597 873-1187): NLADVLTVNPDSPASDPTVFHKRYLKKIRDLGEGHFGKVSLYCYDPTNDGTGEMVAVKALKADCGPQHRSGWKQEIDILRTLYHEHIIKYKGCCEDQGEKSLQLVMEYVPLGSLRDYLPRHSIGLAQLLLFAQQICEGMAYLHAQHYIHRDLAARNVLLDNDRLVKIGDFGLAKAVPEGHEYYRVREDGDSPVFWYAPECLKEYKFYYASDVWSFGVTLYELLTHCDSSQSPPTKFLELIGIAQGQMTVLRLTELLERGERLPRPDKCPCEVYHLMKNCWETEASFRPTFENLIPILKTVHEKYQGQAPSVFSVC
Experiment: TYK2 inhibition assay (Caliper LabChip, isolated kinase domain)
Format: biochemical
Conditions: 25 uM ATP, values given as 'about'
Description: The catalytically active kinase domain of human JAK1, JAK2, JAK3 or TYK2 was purified from extracts of SF9 insect cells infected with a recombinant baculovirus expression vector encoding the human JAK1, JAK2, JAK3 or TYK2 kinase domains (JAK1 amino acid residues N852-D1154 according to the numbering of GenBank sequence accession number P23458, JAK2 amino acid residues D812-G1132 according to the numbering of GenBank sequence accession number NP_004963.1; JAK3 amino acid residues S783-S1124 according to the numbering of GenBank sequence accession number P52333, and TYK2 amino acid residues N873-C1187 according to the numbering of GenBank sequence accession number P29597). The activity of the JAK1, JAK2, JAK3 or TYK2 kinase domains can be measured by a number of direct and indirect methods, including quantification of phosphorylation of peptide substrates derived from the human JAK3 protein (Saltzman et al., Biochem. Biophys. Res. Commun. 246:627-633 (2004)). The activity of the JAK1, JAK2, JAK3 or TYK2 kinase domains was measured in vitro by monitoring phosphorylation of JAK3 derived peptides using the Caliper LabChip technology (see Examples).
The activity of the isolated JAK1, JAK2 or TYK2 kinase domain was measured by monitoring phosphorylation of a peptide derived from JAK3 (SEQ ID NO:1 […] fluorescently labeled on the N-terminus with 5-carboxyfluorescein using the Caliper LabChip technology (Caliper Life Sciences, Hopkinton, Mass.). […] Reactions were incubated at 22° C. in 384-well polypropylene microtiter plates for 30 minutes and then stopped by addition of 25 uL of an EDTA containing solution (100 mM Hepes pH 7.2, 0.015% Brij-35, 150 mM EDTA), resulting in a final EDTA concentration of 50 mM. After termination of the kinase reaction, the proportion of phosphorylated product was determined as a fraction of total peptide substrate using the Caliper LabChip 3000 according to the manufacturer's specifications. Ki values were then determined using the Morrison tight binding model. Morrison, J. F., Biochim. Biophys. Acta. 185:269-296 (1969); William, J. W. and Morrison, J. F., Meth. Enzymol., 63:437-467 (1979).

`O=C(Nc1ccnc(Nc2ccc(C(=O)N3CCOCC3)cn2)c1)c1c(Cl)cccc1Cl` [Example 97, 2,6-dichloro-N-(2-(5-(morpholine-4-carbonyl)-pyridin-2-ylamino)-pyridin-4-yl)benzamide] showed a Ki of less than 3.5 µM.

In the case of `CN1CCN(C(=O)c2ccc(Nc3cc(NC(=O)c4c(Cl)cccc4Cl)ccn3)cc2)CC1` [Example 98, 2,6-dichloro-N-(2-(4-(4-methylpiperazine-1-carbonyl)phenylamino)-pyridin-4-yl)benzamide], the Ki is reported as less than 3.5 µM.

Work on `O=C(Nc1ccnc(Nc2ccc(C(=O)N3CCOCC3)cc2)c1)c1c(Cl)cccc1Cl` [Example 99, 2,6-dichloro-N-(2-(4-(morpholine-4-carbonyl)-phenylamino)pyridin-4-yl)-benzamide] yielded a Ki of less than 3.5 µM.

`O=C(Nc1ccnc(Nc2ccc(C(=O)N3CCN(CCO)CC3)cn2)c1)c1c(Cl)cccc1Cl` [Example 100, 2,6-dichloro-N-(2-(5-(4-(2-hydroxyethyl)piperazine-1-carbonyl)pyridin-2-ylamino)-pyridin-4-yl)benzamide] was tested, and the Ki was less than 3.5 µM.

Work on `O=C(NCCN1CCOCC1)c1ccc(Nc2cc(NC(=O)c3c(Cl)cccc3Cl)ccn2)nc1` [Example 101, 6-(4-(2,6-dichloro-benzamido)pyridin-2-ylamino)-N-(2-morpholino-ethyl)nicotin amide] yielded a Ki of less than 3.5 µM.

With `O=C(NCCCn1ccnc1)c1ccc(Nc2cc(NC(=O)c3c(Cl)cccc3Cl)ccn2)nc1` [Example 102, N-(3-(1H-imidazol-1-yl)-propyl)-6-(4-(2,6-dichlorobenzamido)-pyridin-2-ylamino)-nicotinamide] the Ki was less than 3.5 µM.

Work on `COC(=O)c1ccnc(Nc2cc(NC(=O)c3c(Cl)cccc3Cl)ccn2)c1` [Example 103, methyl 2-(4-(2,6-dichlorobenzamido)-pyridin-2-ylamino)-isonicotinate] yielded a Ki of less than 3.5 µM.

With `O=C(O)c1ccnc(Nc2cc(NC(=O)c3c(Cl)cccc3Cl)ccn2)c1` [Example 104, 2-(4-(2,6-dichloro-benzamido)pyridin-2-ylamino)isonicotinic acid] the Ki was less than 3.5 µM.

For `COC(=O)c1cccc(Nc2cc(NC(=O)c3c(Cl)cccc3Cl)ccn2)n1` [Example 105, methyl 6-(4-(2,6-dichlorobenzamido)-pyridin-2-ylamino)picolinate], the Ki was less than 3.5 µM.

`Cc1nc(Nc2cc(NC(=O)c3c(Cl)cccc3Cl)ccn2)cc(N2CCN(CCO)CC2)n1` [Example 106, 2,6-dichloro-N-(2-(6-(4-(2-hydroxyethyl)piperazin-1-yl)-2-methylpyrimidin-4-ylamino)pyridin-4-yl)benzamide] gave a Ki of less than 3.5 µM.

Work on `O=C(Nc1ccnc(Nc2cc(Cl)nc(N3CCOCC3)n2)c1)c1c(Cl)cccc1Cl` [Example 107, 2,6-dichloro-N-(2-(6-chloro-2-morpholinopyrimidin-4-ylamino)pyridin-4-yl) benzamide] yielded a Ki of less than 3.5 µM.

Work on `O=C(Nc1ccnc(Nc2ccc(N3CCOCC3)cn2)c1)c1c(Cl)cccc1Cl` [Example 108, 2,6-dichloro-N-(2-(5-morpholinopyridin-2-ylamino)pyridin-4-yl)-benzamide] yielded a Ki of less than 3.5 µM.

`O=C(O)c1cccc(Nc2cc(NC(=O)c3c(Cl)cccc3Cl)ccn2)n1` [Example 109, 6-(4-(2,6-dichloro-benzamido)pyridin-2-ylamino)picolinic acid] was tested, and the Ki was less than 3.5 µM.

With `O=C(Nc1ccnc(Nc2ccnc(N3CCNCC3)n2)c1)c1c(Cl)cccc1Cl` [Example 110, 2,6-dichloro-N-(2-(2-(piperazin-1-yl)-pyrimidin-4-ylamino)-pyridin-4-yl)benzamide] the Ki was less than 3.5 µM.

In the case of `Cc1nc(Nc2cc(NC(=O)c3c(Cl)cccc3Cl)ccn2)ccc1C#N` [Example 111, 2,6-dichloro-N-(2-(5-cyano-6-methylpyridin-2-ylamino)pyridin-4-yl)benzamide], the Ki is reported as less than 3.5 µM.

`O=C(Nc1ccnc(Nc2cc(CO)ccn2)c1)c1c(Cl)cccc1Cl` [Example 112, 2,6-dichloro-N-(2-(4-(hydroxymethyl)pyridin-2-ylamino)pyridin-4-yl)benzamide] was tested, and the Ki was less than 3.5 µM.

Work on `CC(C)(C)C(=O)Nc1cccc(Nc2cc(NC(=O)c3c(Cl)cccc3Cl)ccn2)n1` [Example 113, 2,6-dichloro-N-(2-(6-pivalamidopyridin-2-ylamino)pyridin-4-yl)benzamide] yielded a Ki of less than 3.5 µM.

`O=C(Nc1ccnc(Nc2cccc(C(F)(F)F)n2)c1)c1c(Cl)cccc1Cl` [Example 114, 2,6-dichloro-N-(2-(6-(trifluoromethyl)pyridin-2-ylamino)pyridin-4-yl)benzamide] showed a Ki of less than 3.5 µM.

In the case of `COCCOc1ccc(Nc2cc(NC(=O)c3c(Cl)cccc3Cl)ccn2)cc1C(F)(F)F` [Example 115, 2,6-dichloro-N-(2-(4-(2-methoxyethoxy)-3-(trifluoromethyl)phenyl-amino)pyridin-4-yl)benzamide], the Ki is reported as less than 3.5 µM.

In the case of `COc1ccnc(Nc2cc(NC(=O)c3c(Cl)cccc3Cl)ccn2)c1` [Example 116, o-N-(2-(4-methoxypyridin-2-ylamino)pyridin-4-yl)benzamide], the Ki is reported as less than 3.5 µM.

`N#Cc1ccc(Nc2cc(NC(=O)c3c(Cl)cccc3Cl)ccn2)nc1` [Example 117, 2,6-dichloro-N-(2-(5-cyanopyridin-2-ylamino)pyridin-4-yl)benzamide] was tested, and the Ki was less than 3.5 µM.

For `Nc1cccc(Nc2cc(NC(=O)c3c(Cl)cccc3Cl)ccn2)n1` [Example 119, N-(2-(6-aminopyridin-2-ylamino)pyridin-4-yl)-2,6-dichlorobenzamide], the Ki was less than 3.5 µM.

In the case of `CCOC(=O)c1cnc(Nc2cc(NC(=O)c3c(Cl)cccc3Cl)ccn2)cn1` [Example 120, ethyl 5-(4-(2,6-dichlorobenzamido)-pyridin-2-ylamino) pyrazine-2-carboxylate], the Ki is reported as less than 3.5 µM.

For `COC(=O)c1cncc(Nc2cc(NC(=O)c3c(Cl)cccc3Cl)ccn2)n1` [Example 121, methyl 6-(4-(2,6-dichlorobenzamido)-pyridin-2-ylamino)-pyrazine-2-carboxylate], the Ki was less than 3.5 µM.

For `O=C(O)c1cncc(Nc2cc(NC(=O)c3c(Cl)cccc3Cl)ccn2)n1` [Example 122, 6-(4-(2,6-dichlorobenzamido)-pyridin-2-ylamino)-pyrazine-2-carboxylic acid], the Ki was less than 3.5 µM.

Work on `CN(C)c1nc(Cl)cc(Nc2cc(NC(=O)c3c(Cl)cccc3Cl)ccn2)n1` [Example 123, 2,6-dichloro-N-(2-(6-chloro-2-(dimethylamino)-pyrimidin-4-ylamino)-pyridin-4-yl)benzamide] yielded a Ki of less than 3.5 µM.

For `CN1CCN(c2nccc(Nc3cc(NC(=O)c4c(Cl)cccc4Cl)ccn3)n2)CC1` [Example 124, 2,6-dichloro-N-(2-(2-(4-methylpiperazin-1-yl)-pyrimidin-4-ylamino)-pyridin-4-yl)benzamide], the Ki was less than 3.5 µM.

`CN1CCN(c2nccc(Nc3cc(NC(=O)c4c(Cl)cc(Cl)cc4Cl)ccn3)n2)CC1` [Example 125, 2,4,6-trichloro-N-(2-(2-(4-methylpiperazin-1-yl)-pyrimidin-4-ylamino)-pyridin-4-yl)benzamide] was tested, and the Ki was less than 3.5 µM.

For `O=C(O)c1cnc(Nc2cc(NC(=O)c3c(Cl)cccc3Cl)ccn2)cn1` [Example 126, 5-(4-(2,6-dichlorobenzamido)-pyridin-2-ylamino)-pyrazine-2-carboxylic acid], the Ki was less than 3.5 µM.

In the case of `CN(C)c1nccc(Nc2cc(NC(=O)c3c(Cl)cccc3Cl)ccn2)n1` [Example 127, 2,6-dichloro-N-(2-(2-(dimethylamino)pyrimidin-4-ylamino)pyridin-4-yl)benzamide], the Ki is reported as less than 3.5 µM.

`CN1CCN(c2cc(Nc3cc(NC(=O)c4c(Cl)cccc4Cl)ccn3)ncn2)CC1` [Example 128, 2,6-dichloro-N-(2-(6-(4-methylpiperazin-1-yl)-pyrimidin-4-ylamino)-pyridin-4-yl)benzamide] showed a Ki of less than 3.5 µM.

Compound `CN1CCN(c2cc(Nc3cc(NC(=O)c4c(Cl)cc(Cl)cc4Cl)ccn3)ncn2)CC1` [Example 129, 2,4,6-trichloro-N-(2-(6-(4-methylpiperazin-1-yl)-pyrimidin-4-ylamino)-pyridin-4-yl)benzamide] has a Ki of less than 3.5 µM.

Work on `Cc1ccnc(Nc2cc(NC(=O)c3c(Cl)cccc3Cl)ccn2)c1` [Example 130, 2,6-dichloro-N-(2-(4-methylpyridin-2-ylamino)-pyridin-4-yl)benzamide] yielded a Ki of less than 3.5 µM.

For `Cc1cccc(Nc2cc(NC(=O)c3c(Cl)cccc3Cl)ccn2)n1` [Example 131, 2,6-dichloro-N-(2-(6-methylpyridin-2-ylamino)pyridin-4-yl)benzamide], the Ki was less than 3.5 µM.
